No constants are given. Whether binding was seen depends on the method and setting. Some results given as binding are weak or reduced against the parent protein; the word gives no strength.
What was measured:
[1] = molecular target: FGFR3 (plate-coated) (UniProt P22607); test: ELISA on FGFR3-coated wells after 1 h at the stated temperature and 1 h at room temperature
[2] = molecular target: FGFR3 (plate-coated) (UniProt P22607); test: ELISA on FGFR3-coated wells after 1 h heat exposure
[3] = molecular target: FGFR3 (plate-coated) (UniProt P22607); test: ELISA on FGFR3-coated wells, detection with NKG2D-Fc and anti-Fc-HRP
[4] = molecular target: FGFR3 (plate-coated) (UniProt P22607); test: ELISA on FGFR3-coated wells, detection with NKG2D-Fc
[5] = molecular target: FGFR3 (plate-coated) (UniProt P22607); test: ELISA: FGFR3 coated at 2 ug/ml, protein titrated, bound protein detected with NKG2D-Fc and anti-Fc-HRP

Chains of the proteins cited; added tags and fusions are not shown. Residues count along the entry.
UniProt P22607, residues 23-375: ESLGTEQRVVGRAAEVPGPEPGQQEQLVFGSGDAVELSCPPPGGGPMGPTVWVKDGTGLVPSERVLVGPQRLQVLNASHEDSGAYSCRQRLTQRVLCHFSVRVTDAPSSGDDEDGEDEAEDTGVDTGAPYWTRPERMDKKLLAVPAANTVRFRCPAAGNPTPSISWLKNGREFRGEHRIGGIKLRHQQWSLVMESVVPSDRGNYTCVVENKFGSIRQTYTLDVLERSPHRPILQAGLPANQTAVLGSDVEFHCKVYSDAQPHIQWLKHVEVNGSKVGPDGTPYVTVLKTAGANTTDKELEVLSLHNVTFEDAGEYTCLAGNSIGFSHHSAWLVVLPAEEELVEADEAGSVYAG

binding [1]: binds
binding [2]: binds
binding [3]: binds
binding [4]: binds
binding [5]: binds
B1: MICA-α3-iFv.2 (designed binder)
chain: EPHSLRYNLTVLSWDGSVQSGFLTEVHLDGQPFLRCDRQKCRAKPQGQWAEDVLGNKTWDRETRDLTGNGKDLRMTLAHIKDQKEGLHSLQEIRVCEIHEDNSTRSSQHFYYDGELFLSQNLETKEWTMPQSSRAQTLAMNVRNFLKEDAMKTKTHYHAMHADCLQELRRYLKSGVVLRRTVPPMVQVTRSEASGGSGDRVTITCRASQDVSTAVAWYQQKPGKAPKLLIYSASFLYSGVPSRFSGSGSGTDFTLTISSLQPEDFATYYCQQSYTTPPTFGQGTKVEIKGGSSRSSSSGGGGSGGGGEVQLVESGGGLVQPGGSLRLSCAASGFTFTSTGISWVRQAPGKGLEWVGRIYPTNGSTNYADSVKGRFTISADTSKNTAYLQMNSLRAEDTAVYYCARTYGIYDLYVDYTEYVMDYWGQGTLVTVSSGGSSRSSSSGGGGSGGGGDIQMTQSPSSLSASGGSGQITVTCRASGFYPWNITLSWRQDGVSLSHDTQQWGDVLPDGQGTYQTWVATRISQGEEQRFTCYMEHSGQHSTHPVPSGKGSHHHHHH

Reference: patent US20180134765A1
